Test results reported in paper PMC12747936, “Rhamnose alleviates the proinflammatory response during endotoxemia via the CEACAM1/LGALS9-p38 axis” (Acta Biochimica et Biophysica Sinica, 2025).
These are yes or no findings as the source states them, for the method shown. Binding seen in cells or lysates may run through a third protein. Some entries that bind do so weakly or less than the wild type.

Chains of the proteins cited; added tags and fusions are not shown. Residues count along the entry.
UniProt P13688, residues 35-526: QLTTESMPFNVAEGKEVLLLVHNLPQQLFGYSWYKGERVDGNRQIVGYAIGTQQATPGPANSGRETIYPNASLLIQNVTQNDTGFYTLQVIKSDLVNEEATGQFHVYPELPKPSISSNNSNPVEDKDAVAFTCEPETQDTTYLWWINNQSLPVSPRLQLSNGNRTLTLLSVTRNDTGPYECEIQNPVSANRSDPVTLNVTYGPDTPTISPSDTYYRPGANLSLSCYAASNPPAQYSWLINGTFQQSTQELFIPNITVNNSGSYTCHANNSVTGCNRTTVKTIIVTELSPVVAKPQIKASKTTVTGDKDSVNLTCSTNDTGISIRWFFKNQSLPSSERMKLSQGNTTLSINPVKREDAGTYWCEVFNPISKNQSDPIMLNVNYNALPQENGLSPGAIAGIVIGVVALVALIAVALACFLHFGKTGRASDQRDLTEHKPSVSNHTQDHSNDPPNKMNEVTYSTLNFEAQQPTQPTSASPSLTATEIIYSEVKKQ

Tests used:
Flag-tagged WT CEACAM1 = Flag-tagged WT CEACAM1 (UniProt P13688); assay: co-IP; THP1-dMs cotransfected with HA-LGALS9 and Flag-CEACAM1 (WT or mutant), with or without rhamnose (20 uM); lysates incubated with anti-Flag magnetic beads overnight at 4°C, three washes with TBS; western blot
[1] = molecular target: carcinoembryonic antigen-associated cell adhesion molecule 1 (CEACAM1), endogenous (human (endogenous in THP-1)) (UniProt P13688); assay: co-IP; endogenous proteins in THP-1-dM lysates; cells treated with LPS (500 ng/mL) with or without rhamnose (20 uM) for 15 min; lysates incubated overnight at 4°C with anti-CEACAM1 (or anti-LGALS9) antibody, protein A/G agarose 3 h at 4°C, five washes with lysis buffer; western blot for p-Tyr and LGALS9

binding (Flag-tagged WT CEACAM1)	binding [1]	Substance
binds		HA-tagged LGALS9 (from UniProt O00182-1 1-355)
	binds	galectin 9 (LGALS9), endogenous (from UniProt O00182 1-355)
